Measurements from the supplement of paper PMC8007513.
Some of the results follow. Repeats are few or missing, and single values can be far off.

tested on: Saccharomyces cerevisiae BY4743; test: growth (OD600) with compound + IPBC relative to untreated control; higher = less growth inhibition; conditions: compound concentration: 133 uM; IPBC concentration: 0.5 ug/ml; 20 h
Description: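 NMCCC compounds (133 uM) combined with IPBC (0.5 ug/ml) against Saccharomyces cerevisiae BY4743 in YPD, 96-well plates. Growth was read as OD600 at 20 h and expressed as % of the untreated control. Single pass.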

Compound	growth
CCN(CC)S(=O)(=O)c1c(C)nn(Cc2coc(-c3cccs3)n2)c1C + CCCCNC(=O)OCC#CI [3-iodo-2-propynyl butylcarbamate (IPBC)]	94.9%
CSc1nc(NCCN(C)C)c(C#N)c(-c2ccc(C(C)(C)C)cc2)n1 + CCCCNC(=O)OCC#CI [3-iodo-2-propynyl butylcarbamate (IPBC)]	4.67%
CSc1nsc(NC(=O)CN(C)Cc2ccc(Cl)s2)n1 + CCCCNC(=O)OCC#CI [3-iodo-2-propynyl butylcarbamate (IPBC)]	106%
Cc1cc(SCC(=O)OC(C)C(=O)c2ccc(NS(C)(=O)=O)cc2)nc2ccccc12 (stereo not given) + CCCCNC(=O)OCC#CI [3-iodo-2-propynyl butylcarbamate (IPBC)]	109%
N#Cc1ccsc1NC(=O)CCSc1nnnn1C1CC1 + CCCCNC(=O)OCC#CI [3-iodo-2-propynyl butylcarbamate (IPBC)]	93.8%
Cc1cc(C(=O)O)cc(S(=O)(=O)Nc2ccccc2OC(F)F)c1C + CCCCNC(=O)OCC#CI [3-iodo-2-propynyl butylcarbamate (IPBC)]	99.1%
Cc1nc(COC(=O)C(C)Oc2ccc(C#N)cc2)nc2ccccc12 (stereo not given) + CCCCNC(=O)OCC#CI [3-iodo-2-propynyl butylcarbamate (IPBC)]	94.2%
COC(=O)CNC(=O)c1cc2ccccc2cc1OCc1c(C)noc1C + CCCCNC(=O)OCC#CI [3-iodo-2-propynyl butylcarbamate (IPBC)]	98.6%
COc1ccc(Cc2nnc(SCC(N)=O)n2-c2ccccc2)cc1Cl + CCCCNC(=O)OCC#CI [3-iodo-2-propynyl butylcarbamate (IPBC)]	102%
CN(CC1=C(C)ON=C1C)C/2=C(\Cl)C(=O)N(/N=C2)C3=CC=C(C=N3)C(F)(F)F + CCCCNC(=O)OCC#CI [3-iodo-2-propynyl butylcarbamate (IPBC)]	99.8%

Look-ups from the list.
CCN(CC)S(=O)(=O)c1c(C)nn(Cc2coc(-c3cccs3)n2)c1C + CCCCNC(=O)OCC#CI [3-iodo-2-propynyl butylcarbamate (IPBC)] | growth: 94.9%
CSc1nsc(NC(=O)CN(C)Cc2ccc(Cl)s2)n1 + CCCCNC(=O)OCC#CI [3-iodo-2-propynyl butylcarbamate (IPBC)] | growth: 106%
